# The list does not hold the whole screen: it covers a few groups of compounds. Other doses and runs of a compound may be missing. T/C: endpoint of the treated group in % of that of the vehicle group. Some entries give survivors of the animals treated and no T/C: the source files T/C as zero there, which appears to mark a toxic dose or a test without result, not a measured value. Some survivor counts are full or nearly so, which does not show that the dose was tolerated: survival well below the control is almost never listed, so the zero probably covers shortened survival too. Counts of survivors are from the toxicity check (mostly the fifth day) where no day follows; animals may have died later. Schedule codes are those of the source, read here as Q, the interval in days (D) or hours (H), X, the number of doses. Some metal complexes and salts are drawn in pieces, as in the source, so charges may not balance. Where survival is the endpoint, the PubChem record calls one and a half times the control and up active, and a quarter to a half above the control has no call in these data; cut-offs in other NCI protocols can differ. Some entries hold several experiments; their values stand side by side, smallest first. Some entries show no survivor count and are marked so; the dose need not have been tolerated. Brackets with × count equal records among those shown. Some T/C values are followed by the survivors on the day toxicity was checked, most often the fifth; where neither a count nor a note follows, no animal had died by that day.
# System: P388 leukemia ip, CD2F1 mice, survival T/C
# Experiment: NCI In Vivo Anticancer Drug Screen. Data for tumor model P388 Leukemia (intraperitoneal) in CD2F1 (CDF1) mice
# Details: T/C endpoint: median survival time, higher T/C = longer survival
# [1] = dose: 100.0 mg/kg/injection, schedule: Q01DX001 (ip), vehicle: Klucel (hydroxypropylcellulose) (HPC)
# [2] = dose: 200.0 mg/kg/injection, schedule: Q01DX001 (ip), vehicle: Klucel (hydroxypropylcellulose) (HPC)
# [3] = dose: 400.0 mg/kg/injection, schedule: Q01DX001 (ip), vehicle: Klucel (hydroxypropylcellulose) (HPC)
# [4] = dose: 60.0 mg/kg/injection, schedule: Q01DX005 (ip), vehicle: saline with Tween-80
# [5] = dose: 120.0 mg/kg/injection, schedule: Q01DX005 (ip), vehicle: saline with Tween-80
# [6] = dose: 240.0 mg/kg/injection, schedule: Q01DX005 (ip), vehicle: saline with Tween-80
# [7] = dose: 50.0 mg/kg/injection, schedule: Q01DX005 (ip), vehicle: Klucel (hydroxypropylcellulose) (HPC)
# [8] = dose: 12.5 mg/kg/injection, schedule: Q01DX009 (ip), vehicle: saline with Tween-80
# [9] = dose: 25.0 mg/kg/injection, schedule: Q01DX009 (ip), vehicle: saline with Tween-80
# [10] = dose: 50.0 mg/kg/injection, schedule: Q01DX009 (ip), vehicle: saline with Tween-80
# [11] = dose: 200.0 mg/kg/injection, schedule: Q01DX009 (ip), vehicle: saline with Tween-80
structure (smiles),measurement,setting,value
CC(C)(C)CNCCCl,T/C,"dose: 50.0 mg/kg/injection, schedule: Q01DX005 (ip), vehicle: saline",98 % of control
same,T/C,"dose: 100.0 mg/kg/injection, schedule: Q01DX005 (ip), vehicle: saline",98 % of control
same,survivor count,"dose: 200.0 mg/kg/injection, schedule: Q01DX005 (ip), vehicle: saline",0 of 6
[N-]=[N+]=Nc1nc(N)nc(N=[N+]=[N-])n1,T/C,[1],97 % of control [survivor count not shown]
same,T/C,[2],98 % of control [survivor count not shown]
same,T/C,[3],96 % of control [survivor count not shown]
F[P-](F)(F)(F)(F)F.c1ccc(C[S+]2CCCC2)cc1,T/C,"dose: 7.5 mg/kg/injection, schedule: Q01DX005 (ip), vehicle: saline with Tween-80",102 % of control
same,T/C,"dose: 15.0 mg/kg/injection, schedule: Q01DX005 (ip), vehicle: saline with Tween-80",100 % of control
same,survivor count,"dose: 30.0 mg/kg/injection, schedule: Q01DX005 (ip), vehicle: saline with Tween-80",2 of 6
same,survivor count,[4],0 of 6
same,survivor count,[5],0 of 6
same,survivor count,[6],0 of 6
COc1ccc(C2N=C(NN=C(CCl)CCl)SP2(=O)Nc2ncccn2)c(OC)c1 (stereo unspecified),T/C,[4],104 % of control
same,T/C,[5],114 % of control
same,T/C,[6],103 % of control
C/C(N)=N\P(=O)(O)O,T/C,[7],101 % of control
same,survivor count,[7],5 of 6
same,T/C,"dose: 100.0 mg/kg/injection, schedule: Q01DX005 (ip), vehicle: Klucel (hydroxypropylcellulose) (HPC)",97 and 101 % of control
same,T/C,"dose: 200.0 mg/kg/injection, schedule: Q01DX005 (ip), vehicle: Klucel (hydroxypropylcellulose) (HPC)",100 and 104 % of control
N1=C(c2nnc(-c3nn[nH]n3)nn2)NNN1,T/C,"dose: 50.0 mg/kg/injection, schedule: Q01DX009 (ip), vehicle: Klucel (hydroxypropylcellulose) (HPC)",93 % of control [survivor count not shown]
same,T/C,"dose: 100.0 mg/kg/injection, schedule: Q01DX009 (ip), vehicle: Klucel (hydroxypropylcellulose) (HPC)",100 % of control [survivor count not shown]
same,T/C,"dose: 200.0 mg/kg/injection, schedule: Q01DX009 (ip), vehicle: Klucel (hydroxypropylcellulose) (HPC)",94 % of control [survivor count not shown]
CC(C)OP(C)(=O)O.[Sm],T/C,[8],99 % of control [survivor count not shown]
same,T/C,[9],94 % of control [survivor count not shown]
same,T/C,[10],91 % of control [survivor count not shown] (2×)
O=C1C(C(Cl)(Cl)Cl)OC(C(Cl)(Cl)Cl)N1C(O)C(Cl)(Cl)Cl (stereo unspecified),T/C,[10],100 % of control
same,T/C,"dose: 100.0 mg/kg/injection, schedule: Q01DX009 (ip), vehicle: saline with Tween-80",104 % of control
same,T/C,[11],105 % of control
ClP1Nc2cncnc2N1 (stereo unspecified),T/C,"dose: 60.0 mg/kg/injection, schedule: Q01DX005 (ip), vehicle: suspension in saline",103 % of control
same,T/C,"dose: 120.0 mg/kg/injection, schedule: Q01DX005 (ip), vehicle: suspension in saline",104 % of control
same,T/C,"dose: 240.0 mg/kg/injection, schedule: Q01DX005 (ip), vehicle: suspension in saline",104 % of control
CC(C)OP(C)(=O)O.[Tm],T/C,[8],97 % of control [survivor count not shown]
same,T/C,[9],99 % of control [survivor count not shown]
same,T/C,[10],90 % of control [survivor count not shown]
same,T/C,[11],93 % of control [survivor count not shown]
CC1CCCN2C(=NC3C2C(=O)N(C)C(=O)N3C)N1 (stereo unspecified),T/C,"dose: 50.0 mg/kg/injection, schedule: Q01DX001 (ip), vehicle: saline with Tween-80",98 % of control
same,T/C,"dose: 100.0 mg/kg/injection, schedule: Q01DX001 (ip), vehicle: saline with Tween-80",97 % of control
same,survivor count,"dose: 200.0 mg/kg/injection, schedule: Q01DX001 (ip), vehicle: saline with Tween-80",6 of 6
CC1=CC(C)(C)P(=O)(Cl)O1 (stereo unspecified),T/C,"dose: 100.0 mg/kg/injection, schedule: Q04DX003 (ip), vehicle: saline with Tween-80",90 % of control
same,T/C,"dose: 200.0 mg/kg/injection, schedule: Q04DX003 (ip), vehicle: saline with Tween-80",109 % of control
same,T/C,"dose: 400.0 mg/kg/injection, schedule: Q04DX003 (ip), vehicle: saline with Tween-80",95 % of control
N#[O+].[C-]#N.[C-]#N.[C-]#N.[C-]#N.[C-]#N.[Cr+5],T/C,"dose: 12.5 mg/kg/injection, schedule: Q04DX003 (ip), vehicle: water",99 % of control
same,T/C,"dose: 25.0 mg/kg/injection, schedule: Q04DX003 (ip), vehicle: water",99 % of control
same,T/C,"dose: 50.0 mg/kg/injection, schedule: Q04DX003 (ip), vehicle: water",98 % of control
same,T/C,"dose: 100.0 mg/kg/injection, schedule: Q04DX003 (ip), vehicle: water",94 % of control [5 of 6 alive]
same,survivor count,"dose: 200.0 mg/kg/injection, schedule: Q04DX003 (ip), vehicle: water",3 of 6
CP(=O)(O)O.[Cu+2],T/C,"dose: 6.25 mg/kg/injection, schedule: Q01DX009 (ip), vehicle: saline with Tween-80",94 % of control [survivor count not shown]
same,T/C,[8],100 % of control [survivor count not shown] (2×)
CN1CCC2(CC1)NC1CCN(C)CC1S2 (stereo unspecified),T/C,[4],108 % of control
same,T/C,[5],111 % of control [5 of 6 alive]
same,survivor count,[6],0 of 6
CN([PH+](F)F)[PH+](F)F.CN([PH+](F)F)[PH+](F)F.CN([PH+](F)F)[PH+](F)F.[Mo],T/C,[1],106 % of control
same,T/C,[2],112 % of control
same,survivor count,[3],0 of 6
C/C(=C/C(=O)O)[As](=O)(O)O,T/C,"dose: 7.5 mg/kg/injection, schedule: Q01DX009 (ip), vehicle: saline with Tween-80",99 % of control
same,T/C,"dose: 15.0 mg/kg/injection, schedule: Q01DX009 (ip), vehicle: saline with Tween-80",100 % of control
same,T/C,"dose: 30.0 mg/kg/injection, schedule: Q01DX009 (ip), vehicle: saline with Tween-80",97 % of control
O=[N+]([O-])c1cc([N+](=O)[O-])c(O)c([N+](=O)[O-])c1.c1ccc(CN2CCCCC2)cc1,T/C,"dose: 50.0 mg/kg/injection, schedule: Q01DX005 (ip), vehicle: saline with Tween-80",101 % of control
same,T/C,"dose: 100.0 mg/kg/injection, schedule: Q01DX005 (ip), vehicle: saline with Tween-80",106 % of control
same,T/C,"dose: 200.0 mg/kg/injection, schedule: Q01DX005 (ip), vehicle: saline with Tween-80",94 % of control [4 of 6 alive]
NC(C(=O)O)c1cccc(N(CCCl)CCCl)c1 (stereo unspecified),T/C,"dose: 50.0 mg/kg/injection, schedule: Q01DX001 (ip), vehicle: Klucel (hydroxypropylcellulose) (HPC)",135 % of control
same,T/C,[1],135 % of control
same,T/C,[2],145 % of control
O=C(O)Cc1c([N+](=O)[O-])cc([N+](=O)[O-])cc1[N+](=O)[O-],T/C,"dose: 100.0 mg/kg/injection, schedule: Q01DX001 (ip), vehicle: saline",100 % of control
same,T/C,"dose: 200.0 mg/kg/injection, schedule: Q01DX001 (ip), vehicle: saline",104 % of control [4 of 6 alive]
same,survivor count,"dose: 400.0 mg/kg/injection, schedule: Q01DX001 (ip), vehicle: saline",3 of 6

# Source: PubChem BioAssay AID330 (DTP/NCI, 2004)
